Reference: PubChem BioAssay (EPA / NIEHS)
The inconclusive results got no clear call from the source; some entries with a clear call stand among them for comparison. Where the call is inconclusive, the potency comes from a doubtful curve fit. Active and inactive are the calls of the source. How the source made its calls: active means hit-call score of the fitted dose curve at least 0.9, where 1 is the maximum; inconclusive means response in the unintended direction; inactive means score below 0.9.

Protein sequences, listed by entry. Tags and fused reporters are not part of them. Lines headed by an entry give the natural chain unless they say otherwise; changes in a name come on top.
UniProt P33261, whole entry, looked up: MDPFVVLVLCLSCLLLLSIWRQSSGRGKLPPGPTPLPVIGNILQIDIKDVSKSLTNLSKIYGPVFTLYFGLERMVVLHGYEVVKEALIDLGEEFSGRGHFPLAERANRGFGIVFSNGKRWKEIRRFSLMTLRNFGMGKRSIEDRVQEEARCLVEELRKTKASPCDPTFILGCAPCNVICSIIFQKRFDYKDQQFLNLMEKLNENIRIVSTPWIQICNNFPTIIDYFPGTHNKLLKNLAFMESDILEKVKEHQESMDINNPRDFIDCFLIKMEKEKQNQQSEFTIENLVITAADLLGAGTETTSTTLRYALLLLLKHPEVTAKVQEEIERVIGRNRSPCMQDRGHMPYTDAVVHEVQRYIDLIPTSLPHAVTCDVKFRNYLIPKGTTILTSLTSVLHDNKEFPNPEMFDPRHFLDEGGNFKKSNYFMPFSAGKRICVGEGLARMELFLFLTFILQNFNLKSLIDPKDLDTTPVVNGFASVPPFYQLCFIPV
UniProt P11712, whole entry, looked up: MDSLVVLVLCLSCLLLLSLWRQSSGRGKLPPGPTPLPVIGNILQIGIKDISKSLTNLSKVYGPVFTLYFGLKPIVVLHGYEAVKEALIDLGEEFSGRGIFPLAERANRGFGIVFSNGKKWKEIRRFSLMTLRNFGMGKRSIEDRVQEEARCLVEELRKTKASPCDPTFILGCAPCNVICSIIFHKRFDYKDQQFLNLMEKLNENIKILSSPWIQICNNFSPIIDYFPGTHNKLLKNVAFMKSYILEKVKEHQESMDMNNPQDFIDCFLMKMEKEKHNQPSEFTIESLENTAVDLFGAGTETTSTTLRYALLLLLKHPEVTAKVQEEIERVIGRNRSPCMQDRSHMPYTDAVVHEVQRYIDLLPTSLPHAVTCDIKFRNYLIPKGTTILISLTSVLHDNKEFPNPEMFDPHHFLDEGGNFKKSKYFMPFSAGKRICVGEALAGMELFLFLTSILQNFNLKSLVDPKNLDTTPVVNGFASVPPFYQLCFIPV
UniProt P08684, whole entry, looked up: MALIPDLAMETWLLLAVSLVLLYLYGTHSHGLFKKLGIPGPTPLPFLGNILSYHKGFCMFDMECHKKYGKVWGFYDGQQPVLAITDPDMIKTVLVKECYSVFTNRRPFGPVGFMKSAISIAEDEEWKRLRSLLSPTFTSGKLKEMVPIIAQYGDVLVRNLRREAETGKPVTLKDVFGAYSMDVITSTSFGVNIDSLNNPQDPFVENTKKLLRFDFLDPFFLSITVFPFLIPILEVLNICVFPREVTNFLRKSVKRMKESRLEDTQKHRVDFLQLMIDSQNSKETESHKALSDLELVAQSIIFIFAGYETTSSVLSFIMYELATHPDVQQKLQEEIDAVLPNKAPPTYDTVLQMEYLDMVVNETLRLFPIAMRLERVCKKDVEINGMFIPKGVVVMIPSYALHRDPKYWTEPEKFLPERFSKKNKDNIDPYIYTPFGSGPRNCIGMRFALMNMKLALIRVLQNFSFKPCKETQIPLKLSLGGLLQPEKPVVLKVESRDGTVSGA
UniProt P04406: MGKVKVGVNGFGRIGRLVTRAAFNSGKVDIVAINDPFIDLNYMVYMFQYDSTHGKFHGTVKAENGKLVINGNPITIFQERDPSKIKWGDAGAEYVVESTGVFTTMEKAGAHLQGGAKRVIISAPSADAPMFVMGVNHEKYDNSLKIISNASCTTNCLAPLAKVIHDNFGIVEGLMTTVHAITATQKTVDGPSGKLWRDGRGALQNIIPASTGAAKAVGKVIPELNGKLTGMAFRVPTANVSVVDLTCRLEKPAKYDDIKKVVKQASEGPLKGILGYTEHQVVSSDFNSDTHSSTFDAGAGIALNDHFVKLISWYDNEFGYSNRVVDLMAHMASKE
UniProt P20813: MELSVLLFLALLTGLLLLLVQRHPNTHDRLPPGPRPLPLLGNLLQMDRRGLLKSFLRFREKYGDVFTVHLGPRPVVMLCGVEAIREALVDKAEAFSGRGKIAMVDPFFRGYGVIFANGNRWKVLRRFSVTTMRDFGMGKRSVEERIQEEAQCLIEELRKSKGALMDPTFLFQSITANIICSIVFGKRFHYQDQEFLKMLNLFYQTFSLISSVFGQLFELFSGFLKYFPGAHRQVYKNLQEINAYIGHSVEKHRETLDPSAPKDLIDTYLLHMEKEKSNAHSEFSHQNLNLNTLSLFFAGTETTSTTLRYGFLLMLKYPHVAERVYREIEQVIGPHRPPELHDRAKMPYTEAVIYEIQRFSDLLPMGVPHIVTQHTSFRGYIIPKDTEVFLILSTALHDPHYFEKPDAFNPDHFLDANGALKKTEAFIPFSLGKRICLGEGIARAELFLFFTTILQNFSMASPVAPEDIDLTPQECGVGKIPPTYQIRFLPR
UniProt Q9UNQ0: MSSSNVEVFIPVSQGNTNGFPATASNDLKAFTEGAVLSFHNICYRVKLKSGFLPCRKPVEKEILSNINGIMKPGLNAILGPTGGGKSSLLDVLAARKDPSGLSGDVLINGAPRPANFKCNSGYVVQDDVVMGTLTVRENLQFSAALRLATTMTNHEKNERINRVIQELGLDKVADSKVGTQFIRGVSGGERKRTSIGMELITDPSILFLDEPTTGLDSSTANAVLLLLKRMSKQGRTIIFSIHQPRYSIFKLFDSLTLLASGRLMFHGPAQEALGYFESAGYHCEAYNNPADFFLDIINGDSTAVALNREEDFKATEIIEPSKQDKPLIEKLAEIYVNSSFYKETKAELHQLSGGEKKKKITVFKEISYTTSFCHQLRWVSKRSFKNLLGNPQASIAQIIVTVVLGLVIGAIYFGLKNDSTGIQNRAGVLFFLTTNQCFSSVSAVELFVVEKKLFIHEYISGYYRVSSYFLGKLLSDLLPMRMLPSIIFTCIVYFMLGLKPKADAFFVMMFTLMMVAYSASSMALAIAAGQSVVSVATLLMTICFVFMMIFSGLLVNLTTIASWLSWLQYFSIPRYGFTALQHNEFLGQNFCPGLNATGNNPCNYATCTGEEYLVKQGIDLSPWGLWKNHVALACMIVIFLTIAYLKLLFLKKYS

Experiments:
[1] = read-out: Cytochrome P450 2C19 (Homo sapiens) (UniProt P33261); assay: CLD_CYP2C19_24hr: CellzDirect (CLD) Gene Expression Assay for xenobiotic metabolism (CYP2C19) at 24 hours (AID 2283687)
Method in brief: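 Primary human hepatocytes (two donor preparations) dosed daily with fresh test chemical in 0.2% DMSO vehicle; CYP2C19 mRNA induction measured at 24 h by quantitative nuclease protection assay with chemiluminescence, fitted for gain of signal versus DMSO.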

[2] = read-out: Cytochrome P450 2C9 (Homo sapiens) (UniProt P11712); assay: CLD_CYP2C9_24hr: CellzDirect (CLD) Gene Expression Assay for xenobiotic metabolism (CYP2C9) at 24 hours (AID 2283688);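 on AC50: potency for induction meaning a rise in CYP2C9 mRNA over DMSO vehicle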
Method in brief: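 Primary human hepatocytes from two donor preparations, dosed daily for two days at multiple concentrations; vehicle 0.2% DMSO. CYP2C9 mRNA induction at 24 h measured by qNPA chemiluminescence relative to DMSO; cytotoxicity annotated from morphology.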

[3] = read-out: Cytochrome P450 3A4 (Homo sapiens) (UniProt P08684); assay: CLD_CYP3A4_24hr: CellzDirect (CLD) Gene Expression Assay for xenobiotic metabolism (CYP3A4) at 24 hours (AID 2283689)
Method in brief: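 Primary human hepatocytes from two donors dosed daily with fresh compound for two days, 0.2% DMSO vehicle. CYP3A4 mRNA at 24 hr by qNPA chemiluminescence; gain-of-signal fit versus DMSO, cytotoxicity flagged by morphology.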

[4] = read-out: HMG-CoA synthase (HMGCS2), HMGCS2 (gene 3158); assay: CLD_HMGCS2_24hr: CellzDirect (CLD) Gene Expression Assay for HMG-CoA synthase (HMGCS2) at 24 hours (AID 2283691)
Method in brief: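 Primary human hepatocytes from two donor preparations, dosed daily with fresh solutions; vehicle 0.2% DMSO, 24 h harvest. HMGCS2 mRNA quantified by qNPA with S1 nuclease digestion and chemiluminescence; gain fitted versus DMSO, cytotoxicity annotated by morphology.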

[5] = read-out: Glyceraldehyde-3-phosphate dehydrogenase (Homo sapiens) (UniProt P04406); assay: CLD_GAPDH_24hr: CellzDirect (CLD) Gene Expression Assay for Baseline Control (Glyceraldehyde 3-phosphate dehydrogenase) at 24 hours (AID 2283692)
Method in brief: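 Primary human hepatocytes (two donor preparations) dosed daily for two days, 0.2% DMSO vehicle; GAPDH mRNA measured at 24 h by qNPA chemiluminescence as a background control, gain-of-signal fitted against DMSO.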

[6] = read-out: ABC Transporter (ABCB1), ABCB1 (gene 5243); assay: CLD_ABCB1_48hr: CellzDirect (CLD) Gene Expression Assay for ABC Transporter (ABCB1) at 48 hours (AID 2283695);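 on AC50: potency for induction meaning increase of mRNA over DMSO vehicle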
Method in brief: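 Primary human hepatocytes from two donor preparations dosed daily on two consecutive days with 0.2% DMSO vehicle. Harvest at 48 h. ABCB1 mRNA quantified by qNPA with chemiluminescence and fitted for gain of signal versus DMSO.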

[7] = read-out: ABC Transporter (ABCB11), ABCB11 (gene 8647); assay: CLD_ABCB11_48hr: CellzDirect (CLD) Gene Expression Assay for ABC Transporter (ABCB11) at 48 hours (AID 2283697)
Method in brief: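 Primary human hepatocytes from two donor preparations dosed daily for two days at multiple concentrations; 0.2% DMSO vehicle. ABCB11 mRNA at 48 h by quantitative nuclease protection assay, chemiluminescence; fitted for induction versus DMSO.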

[8] = read-out: Cytochrome P450 2B6 (Homo sapiens) (UniProt P20813); assay: CLD_CYP2B6_48hr: CellzDirect (CLD) Gene Expression Assay for xenobiotic metabolism (CYP2B6) at 48 hours (AID 2283699);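 further: actives raise transcript level above DMSO so potency reflects induction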
Method in brief: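 Primary human hepatocytes dosed daily for two days over multiple concentrations, 0.2% DMSO vehicle; CYP2B6 mRNA quantified at 48 h by qNPA chemiluminescence. Induction fitted as gain of signal versus DMSO; cytotoxicity annotated by morphology.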

[9] = read-out: Cytochrome P450 2C19 (Homo sapiens) (UniProt P33261); assay: CLD_CYP2C19_48hr: CellzDirect (CLD) Gene Expression Assay for xenobiotic metabolism (CYP2C19) at 48 hours (AID 2283700)
Method in brief: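 Primary human hepatocytes (two donor preparations) dosed daily for two days, harvested at 48 h; CYP2C19 mRNA induction measured by qNPA chemiluminescence. Gain-of-signal fitted relative to 0.2% DMSO vehicle as baseline.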

[10] = CLD_ACTIN_48hr: CellzDirect (CLD) Gene Expression Assay for Baseline Control (Actin) at 48 hours (AID 2283702)
Method in brief: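 Primary human hepatocytes (two donor preparations) dosed daily for two days with ToxCast chemicals at multiple concentrations versus 0.2% DMSO vehicle; harvested at 48 h. Actin mRNA measured as a background control by quantitative nuclease protection assay with chemiluminescence.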

[11] = read-out: xenobiotic metabolism (CYP1A1), CYP1A1 (gene 1543); assay: CLD_CYP1A1_48hr: CellzDirect (CLD) Gene Expression Assay for xenobiotic metabolism (CYP1A1) at 48 hours (AID 2283705)
Method in brief: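 Primary human hepatocytes from two donors dosed daily for two days at multiple concentrations, 0.2% DMSO vehicle; CYP1A1 mRNA induction at 48 h by qNPA chemiluminescence. Cytotoxicity noted by phase-contrast morphology.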

[12] = read-out: organic anion transporter (SLCO1B1), SLCO1B1 (gene 10599); assay: CLD_SLCO1B1_24hr: CellzDirect (CLD) Gene Expression Assay for organic anion transporter (SLCO1B1) at 24 hours (AID 2283690)
Method in brief: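 Primary human hepatocytes (two donor preparations) dosed daily for two days with chemicals at multiple concentrations, 0.2% DMSO vehicle. SLCO1B1 mRNA at 24 h measured by qNPA chemiluminescence; induction fitted relative to DMSO.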

[13] = read-out: sulfotransferase (SULT2A), SULT2A1 (gene 6822); assay: CLD_SULT2A_24hr: CellzDirect (CLD) Gene Expression Assay for sulfotransferase (SULT2A) at 24 hours (AID 2283694);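 on AC50: potency for increased SULT2A1 mRNA level as induction over DMSO baseline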
Method in brief: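 Primary human hepatocytes from two donor preparations were dosed daily with fresh solutions, vehicle 0.2% DMSO. At 24 h, lysates went to quantitative nuclease protection (qNPA) with S1 digestion and chemiluminescent readout. Cytotoxicity was annotated from phase-contrast morphology.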

[14] = read-out: Glyceraldehyde-3-phosphate dehydrogenase (Homo sapiens) (UniProt P04406); assay: CLD_GAPDH_48hr: CellzDirect (CLD) Gene Expression Assay for Baseline Control (Glyceraldehyde 3-phosphate dehydrogenase) at 48 hours (AID 2283706)
Method in brief: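 Primary human hepatocytes dosed daily for two days with fresh chemical at multiple concentrations, 0.2% DMSO vehicle; GAPDH mRNA measured at 48 h by quantitative nuclease protection assay with chemiluminescence, fitted upward relative to DMSO as background control.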

[15] = read-out: organic anion transporter (SLCO1B1), SLCO1B1 (gene 10599); assay: CLD_SLCO1B1_48hr: CellzDirect (CLD) Gene Expression Assay for organic anion transporter (SLCO1B1) at 48 hours (AID 2283707)
Method in brief: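 Primary human hepatocytes from two donor preparations dosed daily for two days with multiple concentrations, 0.2% DMSO vehicle. SLCO1B1 mRNA at 48 h by quantitative nuclease protection assay, chemiluminescence; gain-of-signal fitted versus DMSO.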

[16] = read-out: alkyl and aryl transferase (GSTA2), GSTA2 (gene 2939); assay: CLD_GSTA2_24hr: CellzDirect (CLD) Gene Expression Assay for alkyl and aryl transferase (GSTA2) at 24 hours (AID 2283693)
Method in brief: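 Primary human hepatocytes (two donor preparations) dosed daily for two days with chemicals at multiple concentrations (vehicle 0.2% DMSO); GSTA2 mRNA at 24 h measured by qNPA chemiluminescence, gain-of-signal versus DMSO.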

[17] = read-out: alkyl and aryl transferase (GSTA2), GSTA2 (gene 2939); assay: CLD_GSTA2_48hr: CellzDirect (CLD) Gene Expression Assay for alkyl and aryl transferase (GSTA2) at 48 hours (AID 2283708);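 further: active means mRNA induction above DMSO vehicle baseline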
Method in brief: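 Primary human hepatocytes dosed daily for two days (0.2% DMSO vehicle), harvested at 48 h. GSTA2 mRNA induction measured by quantitative nuclease protection assay with chemiluminescent imaging, fitted for gain of signal relative to DMSO.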

[18] = read-out: Broad substrate specificity ATP-binding cassette transporter ABCG2 (Homo sapiens) (UniProt Q9UNQ0); assay: CLD_ABCG2_24hr: CellzDirect (CLD) Gene Expression Assay for ABC Transporter (ABCG2) at 24 hours (AID 2283685);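 on AC50: AC50 is for induction meaning signal gain over DMSO vehicle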
Method in brief: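 Primary human hepatocytes were dosed daily with ToxCast chemicals at multiple concentrations (vehicle 0.2% DMSO). ABCG2 mRNA was measured at 24 h by qNPA chemiluminescence; induction was scored as gain of signal versus DMSO.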

[19] = read-out: Broad substrate specificity ATP-binding cassette transporter ABCG2 (Homo sapiens) (UniProt Q9UNQ0); assay: CLD_ABCG2_48hr: CellzDirect (CLD) Gene Expression Assay for ABC Transporter (ABCG2) at 48 hours (AID 2283704);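 on AC50: potency for induction of ABCG2 mRNA above the DMSO baseline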
Method in brief: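 Primary human hepatocytes from two donors, dosed daily for 2 days, 0.2% DMSO vehicle, several concentrations. ABCG2 mRNA at 48 h by qNPA chemiluminescence, gain fitted versus DMSO; cytotoxicity flagged by morphology.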

Measured: AC50

CN=C=S
inconclusive: [6] 20 µM | [7] 0.000557 µM | [8] 20 µM | [11] 20 µM
inactive: [1] | [2] | [3] | [4] | [5] | [9] | [10]

CNC(=O)ON=CC(C)(C)SC
inconclusive: [4] 20 µM | [5] 20 µM | [13] 20 µM | [7] 20 µM | [9] 0.000731 µM | [11] 20 µM | [15] 0.0562 µM
inactive: [1] | [3] | [12] | [6] | [10] | [14]

C=CC1(C)OC(=O)N(c2cc(Cl)cc(Cl)c2)C1=O (stereo unspecified)
inconclusive: [16] 20 µM | [7] 20 µM | [10] 4.25 µM | [15] 20 µM
inactive: [1] | [2] | [12] | [5] | [11] | [17]

CCON=C(CC)C1=C(O)CC(c2c(C)cc(C)cc2C)CC1=O (stereo unspecified)
inconclusive: [16] 20 µM | [19] 20 µM | [11] 20 µM | [15] 20 µM
inactive: [18] | [12] | [5] | [7] | [9] | [10] | [14]

CC(C)(C)c1ccc(CSc2cnn(C(C)(C)C)c(=O)c2Cl)cc1
inactive: [1] | [12] | [7] | [8] | [9] | [10]
inconclusive: [2] 164 nM | [5] 20 µM
active: [13] 20 µM

CC(C)(C)C(O)C(Oc1ccc(Cl)cc1)n1cncn1 (stereo unspecified)
inactive: [18] | [19] | [17]
inconclusive: [12] 1.2 µM | [4] 20 µM | [10] 34.3 µM | [14] 4.27 µM | [15] 0.919 µM

CNC(=O)Oc1cccc2c1OC(C)(C)O2
inconclusive: [18] 1.89 µM | [5] 20 µM | [7] 0.764 µM | [19] 20 µM | [14] 20 µM
active: [8] 3.08 µM
inactive: [12] | [10]

O=[N+]([O-])/N=C1\NCCN1Cc1ccc(Cl)nc1
inactive: [1] | [4] | [13] | [10] | [11]
inconclusive: [2] 145 nM | [12] 20 µM | [7] 20 µM | [9] 2 µM | [15] 0.00045 µM

CSc1nnc(C(C)(C)C)c(=O)n1N
inconclusive: [2] 0.159 nM | [6] 7.97 µM | [7] 0.000791 µM | [9] 20 µM | [10] 20 µM | [19] 20 µM | [11] 20 µM | [15] 0.000729 µM | [17] 20 µM
inactive: [1] | [13] | [14]

C=CCC1=C(C)C(OC(=O)C2C(C=C(C)C)C2(C)C)CC1=O (stereo unspecified)
inconclusive: [1] 0.0921 µM | [2] 972 nM | [4] 20 µM | [9] 20 µM | [10] 20 µM | [14] 20 µM
inactive: [17]

Ordered by heavy-atom count (ascending): three of the compounds above
CSc1nnc(C(C)(C)C)c(=O)n1N
inconclusive: [2] 0.159 nM | [6] 7.97 µM | [7] 0.000791 µM | [9] 20 µM | [10] 20 µM | [19] 20 µM | [11] 20 µM | [15] 0.000729 µM | [17] 20 µM
inactive: [1] | [13] | [14]

CNC(=O)Oc1cccc2c1OC(C)(C)O2
inconclusive: [18] 1.89 µM | [5] 20 µM | [7] 0.764 µM | [19] 20 µM | [14] 20 µM
active: [8] 3.08 µM
inactive: [12] | [10]

CC(C)(C)C(O)C(Oc1ccc(Cl)cc1)n1cncn1 (stereo unspecified)
inactive: [18] | [19] | [17]
inconclusive: [12] 1.2 µM | [4] 20 µM | [10] 34.3 µM | [14] 4.27 µM | [15] 0.919 µM

(further entries)

Cc1[nH]c(=O)n(C(C)(C)C)c(=O)c1Cl
inconclusive: [18] 20 µM | [4] 1.89 µM | [16] 0.273 µM | [7] 4.01 µM | [19] 0.0107 µM | [14] 20 µM | [15] 20 µM
inactive: [5] | [10]

CNC(=O)Oc1cccc2ccccc12
inactive: [5]
active: [11] 3.57 µM
inconclusive: [1] 37.9 µM | [2] 20000 nM | [3] 20 µM | [13] 0.0004 µM | [6] 9.37 µM | [9] 20 µM | [10] 6.68 µM | [19] 8.23 µM | [14] 20 µM

C#CCOS(=O)OC1CCCCC1Oc1ccc(C(C)(C)C)cc1 (stereo unspecified)
inactive: [2] | [12] | [7]
active: [3] 1.89 µM
inconclusive: [1] 3.97 µM | [4] 0.0126 µM | [9] 2 µM | [10] 0.00411 µM | [14] 2 µM | [15] 2 µM

COP(=O)(OC)SCn1c(=O)oc2cc(Cl)cnc21
inactive: [1] | [3] | [16] | [7] | [11] | [17]
inconclusive: [2] 7380 nM | [4] 0.00079 µM | [8] 20 µM | [9] 20 µM | [14] 20 µM | [15] 20 µM
